± gives the uncertainty stated by the source. Many of these values have a large error.

A short description of the data set: self-splicing fitness, log relative to wild type (ln ratio); higher = more splicing; Tetrahymena group I intron in knt gene, E. coli kanamycin selection, DiMSum; sequences stand for … in CUCUCU…GGAGGGAAAAGUUAUCAGGCAUGCACCUGGUAGCUAGUCUUUAAACCAAUAGAUUGCAUCGGUUUAAAAGGCAAGACCGUCAAAUUGCGGGAAAGGGGUCAACAGCCGUUCAGUACCAAGUCUCAGGGGAAACUUUGAGAUGGCCUUGCAAAGGGUAUGGUAAUAAGCUGACGGACAUGGUCCUAACCACGCAGCCAAGUCCUAAGUCAACAGAUCUUCUGUUGAUAUGGAUGCAGUUCACAGACUAAAUGUCGGUCGGGGAAGAUGUAUUCUUCUCAUAAGAUAUAGUCGGACCUCUCCUUAAUGGGAGCUAGCGGAUGAAGUGAUGCAACACUGGAGCCGCUGGGAACUAAUUUGUAUGCGAAAGUAUAUUGAUUAGUUUUGGAGUACUCGUGGUCG
The gist of the method: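 Fitness was computed with DiMSum as the error-weighted combination of replicate fold changes, kanamycin versus none, each normalised to wild type. The library randomised all eight intron nucleotides of the P1ex region, with the intron placed in the knt kanamycin-resistance gene on pET-22b(+) in E. coli BL21(DE3). Six replicate transformations were grown overnight at 37°C or 30°C on LB agar with or without 25 μg/mL kanamycin, plus 100 μg/mL carbenicillin, 50 μM IPTG and 0.2% rhamnose. Pooled colonies were amplicon-sequenced on an Illumina HiSeq 2500.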

With AUGCAGCAAUAUUACGUGGG, the “self-splicing fitness (ln)” value (30 °C) was -5.24 ± 0.51.
Turning to UCGCAGCAAUAUUACGCAGU, the “self-splicing fitness (ln)” value was -3.58 ± 0.2 (30 °C) and -2.35 ± 0.2 (37 °C).
For the sequence CAAGAGCAAUAUUACGUAAC, the “self-splicing fitness (ln)” value (30 °C) was -4.63 ± 0.59.
As to UUGCAGCAAUAUUACGCGCA, the “self-splicing fitness (ln)” value (30 °C) was -1.84 ± 0.14 and the “self-splicing fitness (ln)” value (37 °C) was -0.231 ± 0.18.
In the case of GUGCAGCAAUAUUACGCACA, the “self-splicing fitness (ln)” value runs as follows: (30 °C) -3.26 ± 0.18; (37 °C) -1.67 ± 0.12.
In the case of CCCUAGCAAUAUUACGAACC, under “30 °C”, the “self-splicing fitness (ln)” value was -4.55 ± 0.72.
Regarding GUGGAGCAAUAUUACGGUCU, the “self-splicing fitness (ln)” value by setting is: (30 °C) -2.12 ± 0.52; (37 °C) -1.45 ± 0.54.
On to UCAGAGCAAUAUUACGCACC, for which, under “30 °C”, the “self-splicing fitness (ln)” value is -4.73 ± 1.
Turning to UAGAAGCAAUAUUACGACCC, the “self-splicing fitness (ln)” value by setting is: (30 °C) -1.32 ± 1.4; (37 °C) -1.53 ± 0.6.
Turning to GUGAAGCAAUAUUACGCCCC, the “self-splicing fitness (ln)” value (37 °C) was -0.534 ± 0.53.
AAGGAGCAAUAUUACGGUGC: under “37 °C”, the “self-splicing fitness (ln)” value was -2.77 ± 1.1.
Take AGAGAGCAAUAUUACGGAGA: under “30 °C”, the “self-splicing fitness (ln)” value is -4.29 ± 1.1.
Take UGUUAGCAAUAUUACGUUAC: under “37 °C”, the “self-splicing fitness (ln)” value was -2.84 ± 0.61.
GGGUAGCAAUAUUACGCGCU: the “self-splicing fitness (ln)” value was -3.35 ± 1 (30 °C) and -0.116 ± 0.59 (37 °C).
Take AGUGAGCAAUAUUACGACGA: the “self-splicing fitness (ln)” value runs as follows: (30 °C) -2.44 ± 0.21; (37 °C) -1.13 ± 0.24.
As to AGAGAGCAAUAUUACGGAUC, the “self-splicing fitness (ln)” value (37 °C) was -3.28 ± 1.
As for UCGGAGCAAUAUUACGGCGC, under “37 °C”, the “self-splicing fitness (ln)” value was -2.46 ± 0.79.
As for CGAUAGCAAUAUUACGAGAC, the “self-splicing fitness (ln)” value (37 °C) is -3.33 ± 1.
In the case of UCCAAGCAAUAUUACGCGCU, the “self-splicing fitness (ln)” value is -2.67 ± 0.21 (30 °C) and -1.52 ± 0.23 (37 °C).
In the case of CAGUAGCAAUAUUACGCGGG, the “self-splicing fitness (ln)” value by setting is: (30 °C) -3.1 ± 0.16; (37 °C) -1.91 ± 0.17.
With UUAUAGCAAUAUUACGGAGU, the “self-splicing fitness (ln)” value is, setting by setting: (30 °C) -3.38 ± 0.32; (37 °C) -2.15 ± 0.3.
Regarding CGUGAGCAAUAUUACGAGUC, the “self-splicing fitness (ln)” value reads like this: (30 °C) -4.7 ± 1; (37 °C) -3.08 ± 0.74.
For GUCGAGCAAUAUUACGGGGC, for the setting “30 °C”, the “self-splicing fitness (ln)” value is -3.92 ± 0.6.
For the sequence GCUCAGCAAUAUUACGUAUA, the “self-splicing fitness (ln)” value runs as follows: (30 °C) -1.73 ± 0.096; (37 °C) -0.338 ± 0.085.
Take AGAUAGCAAUAUUACGCUUC: the “self-splicing fitness (ln)” value reads like this: (30 °C) -2.66 ± 0.42; (37 °C) -2.27 ± 0.49.
Consider AAAAAGCAAUAUUACGUGGG, for which the “self-splicing fitness (ln)” value runs as follows: (30 °C) -3.51 ± 0.13; (37 °C) -2.03 ± 0.13.
Consider AAUUAGCAAUAUUACGGGGC, for which the “self-splicing fitness (ln)” value (37 °C) is -3.46 ± 0.59.
Take UGAGAGCAAUAUUACGAGAG: the “self-splicing fitness (ln)” value (30 °C) was -4.33 ± 0.73.
Turning to UUGUAGCAAUAUUACGCGAC, under “30 °C”, the “self-splicing fitness (ln)” value is -2.82 ± 0.54.
With GAUGAGCAAUAUUACGACAG, the “self-splicing fitness (ln)” value (37 °C) was -2.35 ± 0.76.
GGUGAGCAAUAUUACGGCAG: the “self-splicing fitness (ln)” value (37 °C) was -1.08 ± 0.61.
On to AAAUAGCAAUAUUACGAUUG, for which the “self-splicing fitness (ln)” value is -2.16 ± 0.15 (30 °C) and -1.31 ± 0.18 (37 °C).
The like results for GUCGAGCAAUAUUACGGCCG were, in that order, -1.96 ± 0.57 and -0.351 ± 0.51.
On to GGCAAGCAAUAUUACGCCAC, for which, under “37 °C”, the “self-splicing fitness (ln)” value is -3.37 ± 0.73.
Regarding CAAGAGCAAUAUUACGGAUA, the “self-splicing fitness (ln)” value was -2.87 ± 0.23 (30 °C) and -2.32 ± 0.29 (37 °C).
Turning to GCCAAGCAAUAUUACGAAAC, the “self-splicing fitness (ln)” value runs as follows: (30 °C) -2.15 ± 0.14; (37 °C) -0.23 ± 0.14.
The like results for ACGCAGCAAUAUUACGUGCU were, in that order, -3.65 ± 0.18 and -2.9 ± 0.19.
With GGAGAGCAAUAUUACGAUAG, the “self-splicing fitness (ln)” value (30 °C) was -4.38 ± 0.73.
Regarding AUGGAGCAAUAUUACGCGGA, the “self-splicing fitness (ln)” value is, setting by setting: (30 °C) -2.73 ± 0.29; (37 °C) -1.34 ± 0.22.
For UCUGAGCAAUAUUACGAAGC, the “self-splicing fitness (ln)” value is -4 ± 0.74 (30 °C) and -1.48 ± 0.37 (37 °C).
ACGGAGCAAUAUUACGAACC: the “self-splicing fitness (ln)” value reads like this: (30 °C) -2.48 ± 1.1; (37 °C) 0.224 ± 0.84.
As for GUUAAGCAAUAUUACGCCGG, the “self-splicing fitness (ln)” value (30 °C) was -2.26 ± 0.51.
For the sequence GAAGAGCAAUAUUACGGGCC, under “37 °C”, the “self-splicing fitness (ln)” value is -2.03 ± 0.56.
For CUUUAGCAAUAUUACGGAUU, the “self-splicing fitness (ln)” value (30 °C) is -3.83 ± 0.62.
In the case of GCAGAGCAAUAUUACGAGGU, the “self-splicing fitness (ln)” value (30 °C) was -3.19 ± 0.82.
On to AGCGAGCAAUAUUACGUGAC, for which the “self-splicing fitness (ln)” value (37 °C) is -3.76 ± 0.59.

For the origin of these results see the supplement of paper PMC7877785.
